Some of the results follow. Single values are uncertain, as repeats are few or missing.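 Imaging used 1,536-well plates; nuclei positive for cleaved PARP by antibody were divided by total DNA-stained nuclei to yield the apoptosis fraction. Doses for screening kept most cells viable, and cell lines differ markedly in resting and induced cleaved-PARP levels.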
Assays:
Assay in all cases: cleaved PARP positive nuclei fraction relative to DMSO control; melanoma cells; higher = more apoptosis
Conditions in all cases: library dose: low library concentration; 72 h
[1] = system: WM115
[2] = system: WM1716
[3] = system: WM1745
[4] = system: WM3526
[5] = system: WM3619
[6] = system: WM451Lu

| SMILES | cleaved PARP positive nuclei fraction [1] | cleaved PARP positive nuclei fraction [2] | cleaved PARP positive nuclei fraction [3] | cleaved PARP positive nuclei fraction [4] | cleaved PARP positive nuclei fraction [5] | cleaved PARP positive nuclei fraction [6] |
| --- | --- | --- | --- | --- | --- | --- |
| CC[C@]1(O)C[C@H]2CN(CCc3c([nH]c4ccccc34)[C@@](C(=O)OC)(c3cc4c(cc3OC)N(C=O)[C@H]3[C@@](O)(C(=O)OC)[C@H](OC(C)=O)[C@]5(CC)C=CCN6CC[C@]43[C@@H]65)C2)C1 [vincristine] + Cn1cc(C2=C(c3cn(C4CCN(Cc5ccccn5)CC4)c4ccccc34)C(=O)NC2=O)c2ccccc21 [Enzastaurin] (first compound 0.0001 µM, partner dose 0.8 µM) | 508% | 101% | 105% | 32.2% | 131% | 229% |
| Cn1cncc1[C@@](N)(c1ccc(Cl)cc1)c1ccc2c(c1)c(-c1cccc(Cl)c1)cc(=O)n2C [tipifarnib] + O=C(Oc1ccc([N+](=O)[O-])cc1)N1CCC(C(O)(c2ccc3c(c2)OCO3)c2ccc3c(c2)OCO3)CC1 [JZL184] (first compound 0.01 µM, partner dose 1 µM) | 112% | 41.6% | 119% | 74.8% | 75% | 341% |
| N.N.[Cl][Pt][Cl] [cisplatin] + C#Cc1cccc(Nc2ncnc3cc(OCCOC)c(OCCOC)cc23)c1 [erlotinib] (first compound 1.6 µM, partner dose 0.8 µM) | 115% | 176% | 95.4% | 30.5% | 91.3% | 72.9% |
| Cn1cc(C2=C(c3cn(C4CCN(Cc5ccccn5)CC4)c4ccccc34)C(=O)NC2=O)c2ccccc21 [Enzastaurin] + NC(=O)c1ccc(N(C(N)=O)c2c(F)cccc2F)nc1-c1ccc(F)cc1F [VX702] (first compound 0.8 µM, partner dose 0.4 µM) | 46.2% | 138% | 104% | 46% | 86.1% | 126% |
| Cc1cc(N2CCOCC2)cc2[nH]c(-c3c(NC[C@@H](O)c4cccc(Cl)c4)cc[nH]c3=O)nc12 + C/C(O)=C(\C#N)C(=O)Nc1cc(Br)ccc1Br [LFM-A13] (first compound 0.2 µM, partner dose 2 µM) | 67.8% | 82.5% | 122% | 127% | 72.6% | 47.8% |
| O=C(O)[C@@H]1[O][Sb](=[O])([O][Sb]2(=[O])[O][C@H]([C@H](O)CO)[C@H](O)[C@H](C(=O)O)[O]2)[O][C@H]([C@H](O)CO)[C@@H]1O (stereo not given in full) [stibogluconate] + Cc1cc(SCc2sc(-c3ccc(C(F)(F)F)c(F)c3)nc2C)ccc1OCC(=O)O [GW0742] (first compound 2 µM, partner dose 2 µM) | 123% | 24.4% | 68.9% | 144% | 83.2% | 22.5% |
| Nc1ncn([C@H]2C[C@H](O)[C@@H](CO)O2)c(=O)n1 [decitabine] + C/C(O)=C(\C#N)C(=O)Nc1cc(Br)ccc1Br [LFM-A13] (first compound 0.1 µM, partner dose 2 µM) | 373% | 62.1% | 89.2% | 324% | 106% | 76.9% |
| Cn1cc(C2=C(c3cn(C4CCN(Cc5ccccn5)CC4)c4ccccc34)C(=O)NC2=O)c2ccccc21 [Enzastaurin] + C=C(c1ccc(C(=O)O)cc1)c1cc2c(cc1C)C(C)(C)CCC2(C)C [Bexarotene] (first compound 0.8 µM, partner dose 2 µM) | 73.6% | 382% | 109% | 76.3% | 110% | 127% |
| Cn1cc(C2=C(c3cn(C4CCN(Cc5ccccn5)CC4)c4ccccc34)C(=O)NC2=O)c2ccccc21 [Enzastaurin] + Oc1cc(-c2nc(-c3ccccc3)[nH]c2-c2ccncc2)ccc1Cl [L779450] (first compound 0.8 µM, partner dose 0.2 µM) | 180% | 94% | 87.8% | 85.4% | 85.5% | 118% |
| C[C@]12O[C@H](C[C@]1(O)CO)n1c3ccccc3c3c4c(c5c6ccccc6n2c5c31)CNC4=O [Lestaurtinib] + O=C(O)c1ccc(-c2c[nH]c3ncc(-c4ccccc4)cc23)cc1C1CCCC1 [GSK650394] (first compound 0.004 µM, partner dose 0.16 µM) | 66.2% | 150% | 106% | 358% | 81.6% | 302% |
| N.N.[Cl][Pt][Cl] [cisplatin] + O=C(Nc1cccc(Cl)c1)Nc1ncc(CCNc2ncnc3ccsc23)s1 [SNS314] (first compound 1.6 µM, partner dose 0.0008 µM) | 221% | 66.2% | 89.4% | 36.8% | 119% | 186% |
| C[As](C)SC[C@H](NC(=O)CC[C@H](N)C(=O)O)C(=O)NCC(=O)O [Darinaparsin] + O=c1cc(-c2cccc3c2Sc2ccccc2S3)oc(N2CCOCC2)c1 [KU55933] (first compound 0.4 µM, partner dose 1 µM) | 106% | 87.8% | 200% | 65.6% | 75.3% | 55% |
| Nc1ncn([C@H]2C[C@H](O)[C@@H](CO)O2)c(=O)n1 [decitabine] + O=C(Oc1ccc([N+](=O)[O-])cc1)N1CCC(C(O)(c2ccc3c(c2)OCO3)c2ccc3c(c2)OCO3)CC1 [JZL184] (first compound 0.1 µM, partner dose 1 µM) | 180% | 250% | 77.3% | 84.4% | 96.1% | 47.5% |
| C[C@]12O[C@H](C[C@]1(O)CO)n1c3ccccc3c3c4c(c5c6ccccc6n2c5c31)CNC4=O [Lestaurtinib] + CCc1ccc(CCOc2ccc(CC3SC(=O)NC3=O)cc2)nc1 [pioglitazone] (first compound 0.004 µM, partner dose 2 µM) | 125% | 320% | 94.8% | 119% | 97% | 86.3% |
| O=C(O)c1ccc(-c2c[nH]c3ncc(-c4ccccc4)cc23)cc1C1CCCC1 + O=C(Oc1ccc([N+](=O)[O-])cc1)N1CCC(C(O)(c2ccc3c(c2)OCO3)c2ccc3c(c2)OCO3)CC1 [JZL184] (first compound 0.16 µM, partner dose 1 µM) | 66% | 123% | 102% | 33.3% | 81.7% | 57.3% |
| O=C(CCCCCCC(=O)Nc1ccccc1)NO [vorinostat] + Cc1cc(SCc2sc(-c3ccc(C(F)(F)F)c(F)c3)nc2C)ccc1OCC(=O)O [GW0742] (first compound 0.08 µM, partner dose 2 µM) | 121% | 138% | 102% | 52.1% | 89.8% | 72.4% |
| C[C@]12O[C@H](C[C@]1(O)CO)n1c3ccccc3c3c4c(c5c6ccccc6n2c5c31)CNC4=O [Lestaurtinib] + Nc1nc(F)nc2c1ncn2[C@@H]1O[C@H](CO)[C@@H](O)[C@@H]1O [fludarabine] (first compound 0.004 µM, partner dose 0.2 µM) | 142% | 94.1% | 105% | 1760% | 99.6% | 96.3% |
| C[As](C)SC[C@H](NC(=O)CC[C@H](N)C(=O)O)C(=O)NCC(=O)O [Darinaparsin] + O=C(O)C(=O)Nc1sc2c(c1C(=O)O)CCNC2 [TCS401] (first compound 0.4 µM, partner dose 1.66667 µM) | 73.5% | 41.6% | 104% | 102% | 204% | 44.5% |
| C/C(O)=C(\C#N)C(=O)Nc1cc(Br)ccc1Br + Cn1cc(/C=C2\C(=O)Nc3cccnc32)c2ccccc21 [GW441756] (first compound 2 µM, partner dose 0.4 µM) | 147% | 94.4% | 122% | 75.3% | 69.2% | 79.5% |
| N.N.[Cl][Pt][Cl] [cisplatin] + COc1ccc(Cl)c(Nc2nc3ccccc3nc2NS(=O)(=O)c2cccc(NC(=O)C(C)(C)N)c2)c1 [XL147] (first compound 1.6 µM, partner dose 0.8 µM) | 197% | 138% | 88.3% | 34.9% | 75.9% | 41.4% |
| Cc1cc(Nc2cc(N3CCN(C)CC3)nc(/C=C/c3ccccc3)n2)n[nH]1 + C/C(O)=C(\C#N)C(=O)Nc1cc(Br)ccc1Br [LFM-A13] (first compound 0.04 µM, partner dose 2 µM) | 144% | 137% | 93.5% | 76.3% | 96.1% | 160% |
| Cn1cc(C2=C(c3cn(C4CCN(Cc5ccccn5)CC4)c4ccccc34)C(=O)NC2=O)c2ccccc21 [Enzastaurin] + CN1CCN(c2ccc3nc(-c4c(N)c5c(F)cccc5[nH]c4=O)[nH]c3c2)CC1 [Dovitinib] (first compound 0.8 µM, partner dose 0.1 µM) | 93.2% | 33.5% | 107% | 45.5% | 78.5% | 257% |
| C[C@]12O[C@H](C[C@]1(O)CO)n1c3ccccc3c3c4c(c5c6ccccc6n2c5c31)CNC4=O [Lestaurtinib] + O=C(O)c1ccc2c(c1)nc(Nc1cccc(Cl)c1)c1ccncc12 [CX4945] (first compound 0.004 µM, partner dose 0.4 µM) | 206% | 266% | 100% | 99.2% | 91.7% | 49.5% |
| Cn1cc(C2=C(c3cn(C4CCN(Cc5ccccn5)CC4)c4ccccc34)C(=O)NC2=O)c2ccccc21 [Enzastaurin] + CCN(CC)CCCCNc1ncc2cc(-c3cc(OC)cc(OC)c3)c(NC(=O)NC(C)(C)C)nc2n1 [PD173074] (first compound 0.8 µM, partner dose 0.1 µM) | 41.8% | 92.1% | 106% | 72.4% | 112% | 91.3% |
| CS(=O)(=O)c1ccc(C(=O)Nc2ccc(Cl)c(-c3ccccn3)c2)c(Cl)c1 [vismodegib] + C/C(O)=C(\C#N)C(=O)Nc1cc(Br)ccc1Br [LFM-A13] (first compound 1 µM, partner dose 2 µM) | 125% | 58.6% | 81.1% | 85.5% | 9.58% | 134% |

Reformatted bar-delimited: entries from further up
SMILES | cleaved PARP positive nuclei fraction [1] | cleaved PARP positive nuclei fraction [2] | cleaved PARP positive nuclei fraction [3] | cleaved PARP positive nuclei fraction [4] | cleaved PARP positive nuclei fraction [5] | cleaved PARP positive nuclei fraction [6]
O=C(O)[C@@H]1[O][Sb](=[O])([O][Sb]2(=[O])[O][C@H]([C@H](O)CO)[C@H](O)[C@H](C(=O)O)[O]2)[O][C@H]([C@H](O)CO)[C@@H]1O (stereo not given in full) [stibogluconate] + Cc1cc(SCc2sc(-c3ccc(C(F)(F)F)c(F)c3)nc2C)ccc1OCC(=O)O [GW0742] (first compound 2 µM, partner dose 2 µM) | 123% | 24.4% | 68.9% | 144% | 83.2% | 22.5%
Cn1cc(C2=C(c3cn(C4CCN(Cc5ccccn5)CC4)c4ccccc34)C(=O)NC2=O)c2ccccc21 [Enzastaurin] + CN1CCN(c2ccc3nc(-c4c(N)c5c(F)cccc5[nH]c4=O)[nH]c3c2)CC1 [Dovitinib] (first compound 0.8 µM, partner dose 0.1 µM) | 93.2% | 33.5% | 107% | 45.5% | 78.5% | 257%

From the supplement of paper PMC4604168 (melanoma cell lines)
